Data source: PubChem BioAssay AID1259308 (NCATS, 2017)
The whole screen tested about 59,000 reagents; below is a random part of them. Over the whole deposit, about 1,510 (2.6%) got an active call. 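Calls use total luciferase alone and ignore viability, so some active siRNAs may act by altering cell number.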 The numbers tell different reagents against one gene apart.

Test: 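Genes whose loss raises luciferase production in HEK293 cells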 (primary screen)
Cell system: human HEK293 embryonic kidney cells stably expressing firefly luciferase (HEK-CMV-Luc2-Hygro)
Knock-down reagent: single siRNA against human genes, 0.8 pmol siRNA per well
Duration: 72 h
Detection: 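Luciferase light (ONE-Glo) measured on one replicate plate set and viability (CellTiter-Glo) on the other, scaled to a negative control siRNA, with robust z-scores and luciferase per cell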
Reading the numbers: total luciferase, z-score and total luciferase, % of control: higher = more reporter protein produced; luciferase per cell, z-score: higher = more reporter output per viable cell; viable cells, % of control: higher = more viable cells
Rule for the call: 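Active when the median/MAD z-score for overall luciferase is greater than 3; a gene was taken forward for validation with new siRNAs if at least two of its three siRNAs passed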
Meaning of the calls: active = raised luciferase; inactive = no rise

total luciferase, z-score	total luciferase, % of control	luciferase per cell, z-score	viable cells, % of control	activity call	gene knocked down	reagent
-0.107	79.8	0.315	82	inactive	ZNF92	1
1.02	102	1.14	84.5	inactive	ZNF92	2
0.61	94	-0.195	111	inactive	ZNF92	3
-0.547	71	-0.198	83.6	inactive	ZNF276	1
-1.03	61.4	-0.254	73.3	inactive	ZNF276	2
0.045	82.8	0.466	81.8	inactive	ZNF276	3
-0.552	70.9	-0.447	89.1	inactive	MXD3	1
-0.45	72.9	-0.402	90.6	inactive	MXD3	2
2.62	134	2.74	72.9	inactive	MXD3	3
-1.41	53.8	-1.34	85.6	inactive	AKTIP	1
1.7	116	0.873	103	inactive	AKTIP	2
-1.47	52.7	-0.757	71.9	inactive	AKTIP	3
-0.00828	81.7	0.132	88.2	inactive	GLIPR2	1
2.3	128	1.81	88.4	inactive	GLIPR2	2
-0.951	63	0.547	60.9	inactive	GLIPR2	3
0.393	89.7	0.724	82.8	inactive	RBMS3	1
-0.393	74.1	-0.37	91.2	inactive	RBMS3	2
-0.66	68.8	-0.191	80.8	inactive	RBMS3	3
1.13	104	0.679	97.4	inactive	ZNF701	1
0.177	85.4	0.206	90.4	inactive	ZNF701	2
-0.721	67.5	-1.23	104	inactive	ZNF701	3
-0.462	72.7	-0.0872	83.1	inactive	NRARP	1
-0.327	75.4	-0.125	87.1	inactive	NRARP	2
1.11	104	0.665	97.4	inactive	NRARP	3

Copied from the listing (5 entries):
total luciferase, z-score	total luciferase, % of control	luciferase per cell, z-score	viable cells, % of control	activity call	gene knocked down	reagent
0.393	89.7	0.724	82.8	inactive	RBMS3	1
-0.393	74.1	-0.37	91.2	inactive	RBMS3	2
-0.66	68.8	-0.191	80.8	inactive	RBMS3	3
1.13	104	0.679	97.4	inactive	ZNF701	1
0.177	85.4	0.206	90.4	inactive	ZNF701	2

Additional entries follow.
total luciferase, z-score	total luciferase, % of control	luciferase per cell, z-score	viable cells, % of control	activity call	gene knocked down	reagent
-0.264	76.6	-0.723	104	inactive	DUSP6	1
-0.592	70.1	-0.345	85.8	inactive	DUSP6	2
0.352	88.9	0.141	95.7	inactive	DUSP6	3
1.95	121	1.32	95.2	inactive	GPI	1
1.75	117	1.66	84.2	inactive	GPI	2
1.57	113	1.43	86.6	inactive	GPI	3
0.0963	83.8	-0.0845	95.8	inactive	COL4A3	1
-0.494	72.1	0.145	77.5	inactive	COL4A3	2
-0.77	66.6	-0.832	92.6	inactive	COL4A3	3
0.932	100	0.285	104	inactive	TAGAP	1
-2.38	34.6	-2.31	71	inactive	TAGAP	2
-0.129	79.3	-0.446	99.7	inactive	TAGAP	3
0.492	91.7	0.969	79.4	inactive	MRPL28	1
0.36	89	1.51	66.9	inactive	MRPL28	2
-0.618	69.6	-0.454	87.6	inactive	MRPL28	3
-0.623	69.5	1.23	56.1	inactive	SF3B6	1
-0.198	77.9	2.01	51.3	inactive	SF3B6	2
0.0494	82.9	2.66	46	inactive	SF3B6	3
0.5	91.8	0.699	85.4	inactive	PISD	1
2.51	132	2.03	86.2	inactive	PISD	2
-0.0484	80.9	-0.803	112	inactive	PISD	3
-0.638	69.2	-0.762	94.5	inactive	OPTC	1
-1.34	55.3	-1.58	93.7	inactive	OPTC	2
-0.119	79.5	0.112	86.3	inactive	OPTC	3
0.0466	82.8	-0.277	99.5	inactive	KBTBD8	1
1.49	112	2.68	61.5	inactive	KBTBD8	2
-1.66	49	-2.04	93.5	inactive	KBTBD8	3
0.126	84.4	0.368	85.6	inactive	LOC728145 (retired record)	1
0.642	94.6	1.06	80.1	inactive	LOC728145 (retired record)	2
-0.671	68.5	-0.45	86.2	inactive	LOC728145 (retired record)	3
0.157	85	0.943	74.1	inactive	PHACTR2	1
-0.8	66	-0.587	86.1	inactive	PHACTR2	2
0.0792	83.5	-0.31	101	inactive	PHACTR2	3
